# Reference: patent publication US20250066449A1
# These are yes or no findings as the source states them, for the method shown. Some results given as binding are weak or reduced against the parent protein; the word gives no strength.
# Target: transferrin receptor (TfR) (Homo sapiens (Human)) (UniProt P02786)
# Test: cryo-EM, 3D electron density map at about 3.4 Å
binder,measurement,value
GHHERLKSDEWSVTSG [helical region binding moiety #01],binding,binds
